Each structure is given as a SMILES string. Values joined by “and” are separate entries in the source; they are usually repeats but may differ in a detail not shown here. Equal entries are not always repeated. The list shows a part of the results. The main result of the screen is listed elsewhere. These columns were measured beside it and carry no call. Compounds called inactive in the main read-out are mostly missing here. Potencies come from curve fits of mixed quality, noted in brackets.

What is called AC50 is the midpoint of the concentration-response curve, whichever way the signal moves.

This assay is described as follows: qHTS Assay for Modulators of Lamin A Splicing. Particulars: HeLa LMNA splicing GFP/RFP minigene ratio, 48 h. An outline of the steps: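 S3 HeLa cells stably expressing lamin A-EGFP splicing minigene plus DsRed2, 600 cells/well, 48 h compound exposure at 37C. Laser-scanning cytometry; analysed as GFP (500-530 nm)/RFP (575-640 nm) total intensity ratio; 0.5% DMSO vehicle.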
On the technique in general: Quantitative high-throughput screening tests each substance at several concentrations.

Setting [1] is: measured here: GFP splicing reporter channel.
Setting [2] is: measured here: RFP viability control channel.

For `CC(C)(C)c1ccc(C(=O)CCCN2CCC(OC(c3ccccc3)c3ccccc3)CC2)cc1`, the AC50 under setting [1] was 7.94 µM [falling, partial curve, poor fit] and the AC50 under setting [2] was 6.31 µM [falling, partial curve, poor fit].

Regarding `Cc1cc2ncn(/N=C/c3ccc([N+](=O)[O-])o3)c2cc1C`, the half-maximal activity concentration (AC50) is 35.5 µM [falling, single point] under setting [1] and 22.4 µM [falling, partial curve] under setting [2].

For the molecule `COc1ccc(N2CCN(CC(=O)Nc3cccc(S(=O)(=O)N4CCOCC4)c3)CC2)cc1`, the AC50 under setting [2] was 35.5 µM [rising, single point].

Regarding `Cc1cc(O)c(C(C)C)cc1C1(c2cc(C(C)C)c(O)cc2C)OC(=O)c2ccccc21`, the concentration at half-maximal activity (AC50) under setting [2] was 12.6 µM [falling, single point].

With `CCCc1nc2ccc(NC(=O)c3cccs3)cc2c(=O)n1Cc1ccc(Cl)cc1`, the AC50 under setting [2] is 0.0316 µM [rising, full curve, poor fit].

Take `COc1ccc([N+](=O)[O-])cc1N(CC(=O)NC(C(C)C)C(C)C)S(C)(=O)=O`: the half-maximal activity concentration (AC50) under setting [1] was 0.1 µM [rising, partial curve, poor fit].

`O=C1C=C(Nc2ccccc2)C(=O)c2ccccc21`: under setting [2], the half-maximal activity concentration (AC50) is 0.0178 µM [falling, full curve, poor fit].

For `Cc1occc1C(=O)NNC(=S)Nc1cccc([N+](=O)[O-])c1`, under setting [2], the half-maximal activity concentration (AC50) is 0.0562 µM [falling, full curve, poor fit].

For the molecule `Cn1c(COc2ccc(Br)cc2)nnc1SC1CCc2ccccc2C1=O` (stereo unspecified), the AC50 was 8.91 µM [rising, partial curve, poor fit] under setting [1] and 12.6 µM [rising, partial curve] under setting [2].

For `COc1ccc(CN(CCC(c2ccccc2)C2CCOC(C)(C)C2)C(C)=O)cc1` (stereo unspecified), the AC50 is 11.2 µM [rising, partial curve, poor fit] under setting [1] and 12.6 µM [rising, partial curve, poor fit] under setting [2].

Turning to `COc1ccc(C2CC(c3ccc([N+](=O)[O-])cc3)=NN2C(=O)c2ccccc2)cc1OC` (stereo unspecified), the concentration at half-maximal activity (AC50) under setting [2] was 8.91 µM [falling, partial curve].

In the case of `CCOC(=O)C1(Cc2ccccc2)NC(c2ccccc2F)C2C(=O)N(CC)C(=O)C21` (stereo unspecified), the AC50 under setting [2] is 6.31 µM [rising, full curve, poor fit].

`Cn1c(CN2CCCCC2)nc2cc(NC(=O)c3ccc(F)cc3)ccc21`: under setting [1], the AC50 is 7.08 µM [rising, partial curve].

`O=C1COc2ccc(C(=O)COC(=O)CNC(=O)c3ccco3)cc2N1`: the AC50 under setting [1] is 0.02 µM [falling, full curve, poor fit].

For the molecule `CCCCCC(O)c1cccc(OCc2ccc3ccccc3n2)c1` (stereo unspecified), the AC50 under setting [1] is 7.94 µM [rising, partial curve, poor fit] and 5.01 nM [falling, full curve, poor fit]; the AC50 under setting [2] is 14.1 µM [rising, partial curve] and 3.98 nM [falling, full curve, poor fit].

With `CCNC(=S)Nc1cc(Cl)ccc1Oc1ccccc1`, the concentration at half-maximal activity (AC50) under setting [1] is 14.1 µM [rising, single point] and the AC50 under setting [2] is 35.5 µM [rising, single point].

As for `Nc1cc(-c2ccccc2)ccc1O`, the concentration at half-maximal activity (AC50) under setting [2] was 7.08 µM [rising, full curve, poor fit].

For `CN(CC(=O)Nc1ccccc1Cl)CC(=O)Nc1ccccc1[N+](=O)[O-]`, the half-maximal activity concentration (AC50) under setting [2] is 0.398 µM [falling, full curve, poor fit].

Regarding `O=c1c2[nH]c3ccccc3c2nc(SCc2cccc(F)c2)n1-c1ccccc1`, the AC50 under setting [2] was 35.5 µM [falling, single point].

Regarding `CCOc1ccccc1NC(=O)C1CCCN(S(=O)(=O)c2cccc3nsnc23)C1` (stereo unspecified), the AC50 under setting [1] was 1.26 µM [rising, full curve, poor fit] and the AC50 under setting [2] is 17.8 µM [rising, partial curve].

For `CC1CC(C)CN(S(=O)(=O)c2ccc(C(=O)NCCCn3ccnc3)cc2)C1` (stereo unspecified), the AC50 under setting [2] was 6.31 µM [rising, partial curve].

Take `FC(F)(F)c1nc2ccccc2n2c(-c3ccc(Cl)cc3)nnc12`: the AC50 was 35.5 µM [falling, single point] under setting [1] and 35.5 µM [falling, single point] under setting [2].

`NC(=S)N/N=C/c1ccc(C(F)(F)F)cc1`: the half-maximal activity concentration (AC50) is, setting by setting: under setting [1], 35.5 µM [falling, single point]; under setting [2], 31.6 µM [falling, single point].

`C=CCc1c(C)nc(SC)nc1Nc1ccc(C)cc1`: under setting [2], the AC50 was 12.6 µM [rising, partial curve].

With `Cc1nn2c3ccccc3nc2c2ccccc12`, the AC50 under setting [2] is 12.6 µM [rising, partial curve].

For the molecule `Cc1ccc(-c2nn(-c3ccccc3)c3[nH]c(=O)c(CNCc4ccccc4)cc23)cc1`, the AC50 under setting [1] is 35.5 µM [falling, single point].

On to `O=C1CCCCCN1Cc1nnc(SCc2nc3ccccc3s2)n1-c1ccccn1`, for which the AC50 was 0.0398 µM [rising, full curve, poor fit] under setting [1] and 0.0631 µM [rising, full curve, poor fit] under setting [2].

`O=c1ccn([C@@H]2O[C@H](CO)[C@@H](O)[C@H]2O)c(=O)[nH]1`: under setting [1], the AC50 was 0.0112 µM [falling, full curve, poor fit].

As for `N#CC1=C(N)N(c2ccc(F)cc2)C2=C(C1c1ccc(O)cc1)S(=O)(=O)CC2` (stereo unspecified), the concentration at half-maximal activity (AC50) under setting [1] is 11.2 µM [falling, single point].

Regarding `Cc1c(Cl)c(=O)oc2cc(OC(C)C)ccc12`, the concentration at half-maximal activity (AC50) was 2.24 µM [rising, full curve, poor fit] under setting [1] and 12.6 µM [rising, partial curve, poor fit] under setting [2].

Regarding `CCC1=NN2C(=N)/C(=C\c3ccc(OCc4cc(=O)n5nc(CC)sc5n4)c(OC)c3)C(=O)N=C2S1`, the half-maximal activity concentration (AC50) under setting [2] is 35.5 µM [rising, single point].

Take `COc1ccc(C(=O)/C=C/c2ccc(N3CCCCC3)c([N+](=O)[O-])c2)c(OC)c1`: the AC50 is 35.5 µM [falling, single point] under setting [1] and 3.55 µM [rising, partial curve] under setting [2].

With `CC1=Cc2ccccc2C(C#N)N1C(=O)c1ccccc1` (stereo unspecified), the half-maximal activity concentration (AC50) runs as follows: under setting [1], 31.6 µM [rising, single point]; under setting [2], 31.6 µM [rising, single point].

In the case of `CCc1ccc(OCC(=O)N(Cc2ccc(OC)cc2)C2CCS(=O)(=O)C2)cc1` (stereo unspecified), the AC50 under setting [2] was 5.62 µM [falling, full curve, poor fit].

Turning to `CC(C)N1CCN(Cc2ccc(C#CCCO)cc2)CC1CCO` (stereo unspecified), the AC50 was 0.0631 µM [rising, partial curve, poor fit] under setting [1] and 0.0126 µM [rising, full curve, poor fit] under setting [2].

Consider `Cc1n[nH]c(C)c1Sc1ccccc1[N+](=O)[O-]`, for which, under setting [1], the AC50 was 0.0224 µM [rising, full curve, poor fit].

Take `Cc1cc(C)cc(-n2ccnc2SCC(=O)Nc2nccs2)c1`: the half-maximal activity concentration (AC50) under setting [1] is 11.2 µM [rising, partial curve].

Take `COc1ccc2nc(NC(=S)N(C)C)sc2c1`: the AC50 under setting [2] was 12.6 µM [rising, partial curve].

As for `CC(=O)Nc1ccc(Oc2ccc(-c3noc(C)n3)cc2)cc1`, the half-maximal activity concentration (AC50) under setting [1] was 10 µM [rising, partial curve, poor fit] and the AC50 under setting [2] is 10 µM [rising, partial curve, poor fit].

Turning to `COc1ccc2c(c1OC)C(=O)N1c3ccccc3C(=O)N(c3ccccc3F)C21` (stereo unspecified), under setting [2], the half-maximal activity concentration (AC50) was 31.6 µM [rising, single point].

With `O=C1C(C2=C(O)c3ccccc3C2=O)=Nc2ccccc21`, the AC50 under setting [2] is 35.5 µM [falling, single point].

Regarding `N#CCCN(Cc1cccnc1)S(=O)(=O)c1ccc(S(=O)(=O)N2CCCCCC2)cc1`, under setting [2], the AC50 is 15.8 µM [rising, partial curve].

Turning to `O=[N+]([O-])c1cc(S(=O)(=O)C(F)(F)F)ccc1Sc1nc2ccccc2s1`, the AC50 is 1.26 µM [falling, single point] under setting [1] and 0.316 µM [falling, partial curve] under setting [2].

`Clc1ccccc1-c1ccc2ncnc(N3CCNCC3)c2c1`: the AC50 under setting [2] is 35.5 µM [falling, single point].

For `COc1ccc(N2CCN(C(=O)c3ccc4ccccc4n3)CC2)cc1`, the AC50 under setting [1] was 0.501 µM [rising, full curve, poor fit].

Consider `CCOC(=O)/C(C)=C1\NC(C)(C)Cc2ccccc21`, for which, under setting [2], the AC50 is 31.6 µM [rising, single point].

In the case of `CCOc1ccc(C(=O)N2CCN(Cc3cc(=O)n4nc(-c5ccccc5Cl)sc4n3)CC2)cc1`, the AC50 under setting [1] was 0.158 µM [rising, full curve, poor fit].

`CN(Cc1nc(-c2ccncc2)no1)S(=O)(=O)c1ccc(Br)cc1`: the AC50 under setting [2] was 22.4 µM [rising, single point].

As to `CC(=O)Oc1cccc(-c2nc3ccccc3c(=O)o2)c1`, the AC50 under setting [2] was 4.47 µM [falling, partial curve].

On to `CN(C)c1ccc([C@@H]2[C@@H]([N+](=O)[O-])[C@H]3C=Cc4ccccc4N3[C@H]2C(=O)c2ccc(Cl)cc2)cc1`, for which the AC50 under setting [2] is 2.82 µM [rising, partial curve].

Turning to `COc1ccc(C(=O)Nc2ccc(S(=O)(=O)N3CCCCC3C)cc2)c(OC)c1OC` (stereo unspecified), the AC50 under setting [2] is 20 µM [rising, single point].

Take `Cc1ccc(NC(=O)CCOc2ccccc2C)cc1F`: the half-maximal activity concentration (AC50) by setting is: under setting [1], 0.141 µM [falling, full curve, poor fit]; under setting [2], 0.0794 µM [falling, full curve, poor fit].

Turning to `C[N+]12CCCCC1C(COC(=O)c1ccc3c(c1)OCO3)CCC2` (stereo unspecified), the AC50 under setting [1] was 3.55 µM [rising, partial curve, poor fit].

Consider `CC(=O)Oc1ccc(Cl)cc1/C=C/c1cc(OC(C)=O)c2ccccc2n1`, for which, under setting [2], the concentration at half-maximal activity (AC50) is 35.5 µM [rising, single point].

The record behind these values is PubChem BioAssay AID1487 (National Center for Advancing Translational Sciences (NCATS), 2009).
